Values of other authors as cited in paper PMC3784060 (Cancer Chemotherapy and Pharmacology, 2013).
Which two values form the index is not stated here.

System: A2780 ovarian carcinoma xenograft
Conditions: A2780 ovarian carcinoma xenograft mouse model; cited from earlier work

Structure (SMILES)	therapeutic index (TI; maximum tolerated dose to effective dose)
CC(C)(C)c1cnc(CSc2cnc(NC(=O)C3CCNCC3)s2)o1 [SNS-032]	2
CN1CC[C@H](c2c(O)cc(O)c3c(=O)cc(-c4ccccc4Cl)oc23)[C@H](O)C1 [flavopiridol]	< 1
